{
  "source": "paper PMC6269467",
  "biological_target": "αN-catenin actin-binding domain with the helix-1 mutation (αNcat-ABD-H1) (mouse) (UniProt Q61301)",
  "test": "NMR titration; 1H-15N HSQC spectra of 15N-αNcat-ABD-H1 at sample concentrations from 0.05 mM to 1.60 mM; self-association; both purified",
  "note": "Results are given in words; binding and its absence hold for the method and conditions named. Some binding calls cover weakened binding; strength is not graded here.",
  "data": [
    {"binder": "αN-catenin actin-binding domain with the helix-1 mutation (αNcat-ABD-H1) (domain or fragment, UniProt Q61301-2 651-905) SRTSVQTEDDQLIAGQSAGSGSAQLPQEEKAKIAEQVEIFHQEKSKLDAEVAKWDDSGNDIIVLAKQMCMIMMEMTDFTRGKGPLKNTSDVINAAKKIAEAGSRMDKLARAVADQCPDSACKQDLLAYLQRIALYCHQLNICSKVKAEVQNLGGELIVSGLDSATSLIQAAKNLMNAVVLTVKASYVASTKYQKVYGTAAVNSPVVSWKMKAPEKKPLVKREKPEEFQTRVRRGSQKKHISPVQALSEFKAMDSF", "values": [
      {"measurement": "binding", "value": "binds weakly"}
    ]}
  ]
}
